According to PubChem BioAssay AID504444 (National Center for Advancing Translational Sciences (NCATS), 2011):
Among all 360,000 compounds or so, about 7,500 (2.1%) were called active. Inconclusive means that the source gave no clear call. Such entries were picked first, then a sample of the others. Calls come from the whole dose curve; as a rule, active = well fitted inhibition curve with a large enough effect; inconclusive = small, poorly fitted or top-dose-only effect, or effect the other way; inactive = flat fitted curve, though single readings scatter. Where the call is inconclusive, the potency comes from a doubtful curve fit.
Potency is the fitted concentration of half-maximal effect.

Assay: Nrf2 qHTS screen for inhibitors; note: nearly all actives have a fitted effect of over 60% in size
Conditions: A549 ARE-Fluc reporter, luciferase luminescence, 18-24 h; series mostly up to 46 µM
Outline: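 Nrf2 activity is the BugLite luminescence, read 15 min after reagent at room temperature, following CellTiter-Fluor cytotoxicity readout (30 min, 37C). Compound titrations were applied for 18-24 h to 5000 A549 ARE_Fluc cells/well in 5% FBS OPTI-MEM.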
In the case of O=C(Nc1cccc(Cl)c1)Nc1cccc(Cl)c1, the Potency is reported as inconclusive: 29.1 µM [falling, single point]. For O=C(O)c1ccc(N2C(=O)CC(SC(=NCc3ccc4c(c3)OCO4)Nc3ccc(F)cc3)C2=O)cc1 (configuration not stated), the Potency was inconclusive: 29.1 µM [falling, single point]. For CC(C)Nc1nc(Cl)nc(NN(C)c2nc(N(C)C)nc(N(C)C)n2)n1, the Potency was inconclusive: 29.1 µM [falling, single point]. In the case of CCOC(=O)c1c(C)[nH]c(C(C)=O)c1C, the Potency is reported as “inactive”. In the case of C=C(C)COc1ccc(-c2[nH]ncc2Oc2ccccc2OCC)c(O)c1, the Potency is reported as inconclusive: 29.1 µM [falling, single point]. With CC(C)(C)C1CCc2c(sc(NC(=O)c3noc4c3CCCC4)c2C#N)C1 (configuration not stated) the Potency was “inactive”. In the case of Cc1ccc(S(=O)(=O)N2CCC3(CC2)OCCN3S(=O)(=O)c2cccs2)cc1, the Potency is reported as inconclusive: 18.4 µM [falling, partial curve, poor fit]. With COc1ccccc1NC(=O)CSc1cn(CC(=O)N2CCCC2)c2ccccc12 the Potency was “inactive”. In the case of CCC1CCCCN1C(=O)CSc1nnc(-c2ccc(OC)c(OC)c2)o1 (configuration not stated), the Potency is reported as “inactive”. With CCOC(=O)c1ccc(NC(=O)N2CC3CCCN3c3ccccc32)cc1 (configuration not stated) the Potency was inconclusive: 29.1 µM [falling, single point]. In the case of COc1ccc2nc(NC(=O)C3CCCN(S(=O)(=O)c4cccc5nonc45)C3)sc2c1 (configuration not stated), the Potency is reported as “inactive”. With Cc1cccn2cc(CSc3ccccc3N)nc12 the Potency was inconclusive: 4.11 µM [activator, partial curve, poor fit]. In the case of CCOC(=O)CSc1nc2sc(C)c(C)c2c(=O)[nH]1, the Potency is reported as inconclusive: 6.51 µM [activator, partial curve, poor fit]. In the case of CCc1ccccc1N1CCN(S(=O)(=O)c2cc(OC)ccc2OC)CC1, the Potency is reported as inconclusive: 25.9 µM [falling, single point]. With COc1cccc(NC(=O)c2ccc(CN3CCN(c4ccccc4)CC3)cc2)c1 the Potency was inconclusive: 18.4 µM [falling, partial curve]. With CCn1c(SCC(=O)Nc2ccc(C)cc2)nnc1-c1ccc(O)cc1 the Potency was inconclusive: 18.4 µM [falling, single point]. In the case of COc1cccc(-n2c(C)nc3cc(C(=O)O)ccc32)c1, the Potency is reported as inconclusive: 29.1 µM [falling, partial curve, poor fit]. For COc1ccccc1Cn1c(=O)[nH]c2cccnc21, the Potency was inconclusive: 4.61 µM [activator, partial curve, poor fit]. With COc1cccc(-c2nc3c(C#N)c[nH]n3c2NC2CCCC2)c1OC the Potency was inconclusive: 23.1 µM [falling, single point]. In the case of CCN(CCCNC(=O)c1cc2c(=O)n(CC)c3ccccc3c2s1)Cc1ccccc1, the Potency is reported as “inactive”. For Cc1cc(OCC(=O)N2CCC(c3nc4ccccc4s3)CC2)ccc1Cl, the Potency was inconclusive: 29.1 µM [falling, single point]. For O=C(CSc1ncc(-c2ccccc2)[nH]1)Nc1cccc(Br)c1, the Potency was inconclusive: 0.92 µM [activator, partial curve, poor fit]. In the case of O=C(Nc1ccc(F)cc1F)N1CCN(c2ncccn2)CC1, the Potency is reported as “inactive”. In the case of NC(=O)CSc1oc(-c2ccc(F)cc2)nc1S(=O)(=O)c1ccccc1, the Potency is reported as inconclusive: 14.6 µM [falling, partial curve, poor fit]. In the case of Cc1csc(NC(=O)CSc2nc(C)nc3c2c(=O)n(C)c(=O)n3C)n1, the Potency is reported as inconclusive: 18.4 µM [falling, single point]. In the case of CCCCCCC1(C)NC(c2ccc3c(c2)OCO3)=CC(c2ccccc2O)N1 (configuration not stated), the Potency is reported as “inactive”. For COc1ccc(CC(=O)Nc2nc(-c3cc(OC)ccc3OC)cs2)cc1, the Potency was active: 11.6 µM. With O=c1[nH]c2cc3c(cc2cc1C(c1nnnn1C1CCCC1)N1CCCc2ccccc21)OCCO3 (configuration not stated) the Potency was inconclusive: 25.9 µM [activator, single point]. For CC(=O)c1ccc(NCC2COc3ccccc3O2)c([N+](=O)[O-])c1 (configuration not stated), the Potency was inconclusive: 2.59 µM [activator, full curve]. In the case of Cc1cc2n(n1)CCCN2C(=O)Nc1ccc(F)c(Cl)c1, the Potency is reported as inconclusive: 23.1 µM [activator, single point]. With Cc1cc([N+](=O)[O-])ccc1NC(=O)c1csc(C)c1C the Potency was inconclusive: 3.66 µM [activator, partial curve]. With CS(=O)(=O)N(CCc1ccccc1)CC(=O)Nc1ccc(OCc2ccccc2)cc1 the Potency was inconclusive: 29.1 µM [falling, single point]. For COc1ccc(CCNc2cc(N3CCN(C(=O)c4ccccc4F)CC3)ccc2[N+](=O)[O-])cc1OC, the Potency was active: 2.06 µM. For Cc1cccc(N(CC(=O)N=Nc2c(O)[nH]c3ccccc23)S(C)(=O)=O)c1C, the Potency was inconclusive: 18.4 µM [falling, single point]. In the case of Cc1noc(C)c1COc1ccccc1C(=O)NC(C)c1ccc(Cl)cc1 (configuration not stated), the Potency is reported as inconclusive: 32.6 µM [falling, partial curve, poor fit]. In the case of COc1ccccc1NC(=O)COc1ccc(/C=N/NC(=O)c2cccnc2)cc1, the Potency is reported as inconclusive: 4.61 µM [falling, partial curve, poor fit]. In the case of CC(NC(=O)COc1ccc(-c2nnco2)cc1)c1ccc(Cl)cc1Cl (configuration not stated), the Potency is reported as “inactive”. For CC(C)CC(=O)C1CCCN(C(=O)c2ccc3oc(Cc4ccccc4)nc3c2)C1 (configuration not stated), the Potency was inconclusive: 23.1 µM [falling, partial curve]. With Cc1ccc(-c2csc(=S)n2CC(=O)OCC(=O)NCc2ccco2)cc1 the Potency was active: 18.4 µM. For O=C(OC(c1ccccc1)c1nccc2ccccc12)c1ccccc1 (configuration not stated), the Potency was inconclusive: 3.66 µM [activator, partial curve]. For CCOC(=O)CSC1=C(C#N)C(c2ccc(C)s2)CC(=O)N1 (configuration not stated), the Potency was active: 20.6 µM. With CCn1nnc2cc(C(=O)Nc3ccc(C)cc3Br)ccc21 the Potency was inconclusive: 13 µM [activator, partial curve, poor fit]. For CCCCOC(=O)Nc1ccc(N2CCCCC2)cc1, the Potency was inconclusive: 5.8 µM [activator, single point]. With CCCCNC(=O)C1CCN(Cc2ccc(OCc3ccccc3)cc2)CC1 the Potency was inconclusive: 14.6 µM [activator, partial curve, poor fit]. In the case of CCOc1ccc(CCNc2ncnc3onc(-c4ccc(Cl)cc4)c23)cc1, the Potency is reported as active: 7.31 µM. For CC(=O)c1sc(NC(=O)CCCc2nc3ccccc3c(=O)[nH]2)nc1-c1ccccc1, the Potency was inconclusive: 23.1 µM [falling, partial curve]. For CC(C)(C)OC(=O)N1CCC(c2nnc(SCc3ccccc3F)o2)CC1, the Potency was active: 20.6 µM. In the case of O=C(c1ccco1)N1CCN(C(=O)c2cnn3c(C(F)(F)F)cc(-c4cccs4)nc23)CC1, the Potency is reported as inconclusive: 9.2 µM [falling, partial curve, poor fit]. For COc1ccc(NS(=O)(=O)c2csc(C(N)=O)c2)cc1, the Potency was “inactive”. With O=c1c2oc3ccccc3c2n(Cc2ccccc2)c(=O)n1Cc1ccco1 the Potency was inconclusive: 29.1 µM [activator, single point]. With CC1CCCN(CCCNC(=O)C2CCC(CNS(=O)(=O)c3cccc4nsnc34)CC2)C1 (configuration not stated) the Potency was inconclusive: 29.1 µM [activator, single point]. For O=P(c1ccccc1)(c1ccccc1)c1cc(Br)cc(Br)c1OCCO, the Potency was inconclusive: 29.1 µM [falling, partial curve, poor fit]. With O=C(Cc1csc(-c2ccc(F)cc2)n1)Nc1cccc(S(=O)(=O)NC2=NCCC2)c1 the Potency was inconclusive: 14.6 µM [falling, partial curve, poor fit]. With O=C(Nc1cc([N+](=O)[O-])ccc1N1CCOCC1)c1cccs1 the Potency was “inactive”. For CCOC(=O)c1c(NC(=O)CN2C(=O)NC3(CCCC3)C2=O)sc(C)c1CC, the Potency was inconclusive: 29.1 µM [falling, single point]. For COc1ccc(OC)c(CNC(=O)c2cc3ccc4cccnc4c3[nH]2)c1, the Potency was inconclusive: 20.6 µM [falling, single point]. In the case of CCOC(=O)Nc1nnc(-c2cccc(OC)c2)s1, the Potency is reported as inconclusive: 29.1 µM [activator, single point]. For N#Cc1ccc(-c2cccs2)nc1SCc1cccnc1, the Potency was inconclusive: 14.6 µM [activator, partial curve]. In the case of CCN(CC)S(=O)(=O)c1ccc(N2CCOCC2)c(NC(=O)c2ccc(F)cc2)c1, the Potency is reported as “inactive”. For CCOC(=O)C1(CCOC)CCN(C/C=C/c2ccccc2OC)CC1, the Potency was inconclusive: 18.4 µM [falling, partial curve, poor fit]. In the case of CCOc1cc(/C=N/NC(=O)c2nn(C)cc2Br)ccc1OCc1ccccc1, the Potency is reported as inconclusive: 18.4 µM [falling, single point]. With O=C(Nc1nnc(CCc2ccccc2)s1)c1cccs1 the Potency was inconclusive: 8.2 µM [activator, partial curve]. For COc1ccc(C(=O)NC(C(=O)N2CCN(c3ccccc3O)CC2)C(C)C)cc1 (configuration not stated), the Potency was “inactive”. With CNC(=O)/C=C/c1cc(C(=O)c2ccc(Cl)cc2Cl)cn1C the Potency was inconclusive: 16.4 µM [falling, partial curve, poor fit]. With CCOC(=O)C1CCCN(C(=O)c2cc3c(=O)n(C)c4ccccc4c3n2C)C1 (configuration not stated) the Potency was inconclusive: 5.17 µM [falling, single point]. In the case of COc1ccc(/C=C/C(=O)NC(=S)Nc2ccccn2)cc1, the Potency is reported as inconclusive: 23.1 µM [activator, single point]. In the case of CCc1ccc(/C=C2\SC(=S)N(CCCC(=O)Nc3ccccc3C(=O)O)C2=O)cc1, the Potency is reported as “inactive”.
